Literature values as cited in patent US7455840B2, “Compositions and methods to reduce mutagenesis” (priority 2003, dated 2008).
Some results were stated once for a whole list of compounds, not compound by compound.

Test system: tubercular bacilli
Conditions: within 2 months of initiation of therapy; cited from earlier work

## NNC(=O)c1ccncc1 [INH, isoniazid]
  tubercular bacilli killed: more than 99%

## CO[C@H]1/C=C/O[C@@]2(C)Oc3c(C)c(O)c4c(O)c(c(/C=N/N5CCN(C)CC5)c(O)c4c3C2=O)NC(=O)/C(C)=C\C=C\[C@H](C)[C@H](O)[C@@H](C)[C@@H](O)[C@@H](C)[C@H](OC(C)=O)[C@@H]1C [rifampin]
  tubercular bacilli killed: more than 99%
